The record followed here is ChEMBL document CHEMBL3808335, “Discovery of KLS-13019, a Cannabidiol-Derived Neuroprotective Agent, with Improved Potency, Safety, and Permeability” (ACS Med Chem Lett, 2016).

Structures are written as SMILES. Values after ≈ are worked out from the molar mass of the structure shown.

This series is described as follows: Kinetic aqueous solubility of the compound at pH 7.4. The conditions noted are these: buffer.

The kinetic solubility is solubility judged after dilution from a stock solution rather than from solid.

`C=C(C)[C@@H]1CCC(C)=C[C@H]1c1c(O)cc(CCn2ccnn2)cc1O`: the solubility (kinetic) was 88 µM (≈ 29.9 µg/mL).
